Results are given in words; binding and its absence hold for the method and conditions named. Some binding calls cover weakened binding; strength is not graded here.
Target: T1, AccD (acetyl-CoA carboxylase subunit D) (UniProt P0A9Q5)
T1 sequence: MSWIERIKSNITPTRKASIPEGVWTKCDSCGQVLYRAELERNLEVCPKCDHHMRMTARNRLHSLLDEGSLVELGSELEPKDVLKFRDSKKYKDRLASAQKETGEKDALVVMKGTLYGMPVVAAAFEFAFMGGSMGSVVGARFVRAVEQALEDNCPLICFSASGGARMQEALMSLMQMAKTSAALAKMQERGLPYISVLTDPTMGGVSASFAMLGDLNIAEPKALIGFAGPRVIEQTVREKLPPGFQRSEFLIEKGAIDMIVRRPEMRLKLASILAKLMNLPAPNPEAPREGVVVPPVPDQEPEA
Assay: co-purification (Ni affinity, then anion exchange); lysate of E. coli co-expressing C-terminally 6His-tagged AccD and AccA on a HisTrap HP column (20 mM Tris-HCl pH 8.0, 500 mM NaCl, 10% glycerol, imidazole gradient), then HiTrap Capto Q

B1: AccA (acetyl-CoA carboxylase subunit A) (enzyme, UniProt P0ABD5 1-319)
chain: MSLNFLDFEQPIAELEAKIDSLTAVSRQDEKLDINIDEEVHRLREKSVELTRKIFADLGAWQIAQLARHPQRPYTLDYVRLAFDEFDELAGDRAYADDKAIVGGIARLDGRPVMIIGHQKGRETKEKIRRNFGMPAPEGYRKALRLMQMAERFKMPIITFIDTPGAYPGVGAEERGQSEAIARNLREMSRLGVPVVCTVIGEGGSGGALAIGVGDKVNMLQYSTYSVISPEGCASILWKSADKAPLAAEAMGIIAPRLKELKLIDSIIPEPLGGAHRNPEAMAASLKAQLLADLADLDVLSTEDLKNRRYQRLMSYGYA
binding: binds

Reference: PMC9515091
